Here are results for four molecules from paper PMC10111864.

Results are given in words; binding and its absence hold for the method and conditions named. In cells and extracts the contact can be indirect. Some results given as binding are weak or reduced against the parent protein; the word gives no strength. Sequences can lack the tags named with a protein.

Experiment [1] concerns the target T1, KIF1C:mCherry (endogenous KIF1C tagged at the C terminus with mCherry) (mouse (endogenous in YUMM1.7)) (UniProt O35071).
T1 sequence: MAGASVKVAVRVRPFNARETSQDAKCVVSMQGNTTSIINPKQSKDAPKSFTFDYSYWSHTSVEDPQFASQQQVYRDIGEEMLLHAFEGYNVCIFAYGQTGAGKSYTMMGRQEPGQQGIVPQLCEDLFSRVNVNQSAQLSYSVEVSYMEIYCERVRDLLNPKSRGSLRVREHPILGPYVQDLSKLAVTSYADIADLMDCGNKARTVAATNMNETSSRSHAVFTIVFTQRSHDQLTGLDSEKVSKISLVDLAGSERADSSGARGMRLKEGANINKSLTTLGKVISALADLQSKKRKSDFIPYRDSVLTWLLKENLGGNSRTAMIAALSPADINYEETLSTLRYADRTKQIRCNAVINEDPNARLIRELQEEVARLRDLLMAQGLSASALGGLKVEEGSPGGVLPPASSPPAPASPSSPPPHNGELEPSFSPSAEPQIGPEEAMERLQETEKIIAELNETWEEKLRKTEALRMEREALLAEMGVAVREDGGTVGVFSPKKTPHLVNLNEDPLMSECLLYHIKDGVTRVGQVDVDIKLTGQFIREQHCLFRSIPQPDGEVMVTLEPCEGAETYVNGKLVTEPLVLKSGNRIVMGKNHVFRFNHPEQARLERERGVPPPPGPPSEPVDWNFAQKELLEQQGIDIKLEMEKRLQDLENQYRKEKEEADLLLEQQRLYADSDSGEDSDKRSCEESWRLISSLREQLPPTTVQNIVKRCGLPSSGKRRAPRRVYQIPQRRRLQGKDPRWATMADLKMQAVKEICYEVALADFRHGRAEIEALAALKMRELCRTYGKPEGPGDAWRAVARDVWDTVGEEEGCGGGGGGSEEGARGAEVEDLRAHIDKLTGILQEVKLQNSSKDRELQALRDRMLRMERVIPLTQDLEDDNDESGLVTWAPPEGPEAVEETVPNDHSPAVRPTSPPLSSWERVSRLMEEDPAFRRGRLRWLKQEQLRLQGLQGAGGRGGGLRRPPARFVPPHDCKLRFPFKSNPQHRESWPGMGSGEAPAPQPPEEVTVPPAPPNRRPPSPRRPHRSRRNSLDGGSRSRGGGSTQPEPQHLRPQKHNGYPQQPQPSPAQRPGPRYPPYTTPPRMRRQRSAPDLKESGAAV
Kind of experiment: co-IP; α-mCherry antibody (10 μg, Invitrogen 16D7), protein G Dynabeads, lysates of KIF1C:mCherry-tagged YUMM1.7 cell lines (+/+ and ΔGA1,2), Western blot; washes 50 mM Tris pH 7.4, 150 mM NaCl, 0.02% NP-40. Background: In western blotting, separated proteins are transferred to a membrane and probed.

In experiment [2] the target is T2, KIF1C (endogenous, untagged) (mouse (endogenous in YUMM1.7)) (UniProt O35071).
T2 sequence: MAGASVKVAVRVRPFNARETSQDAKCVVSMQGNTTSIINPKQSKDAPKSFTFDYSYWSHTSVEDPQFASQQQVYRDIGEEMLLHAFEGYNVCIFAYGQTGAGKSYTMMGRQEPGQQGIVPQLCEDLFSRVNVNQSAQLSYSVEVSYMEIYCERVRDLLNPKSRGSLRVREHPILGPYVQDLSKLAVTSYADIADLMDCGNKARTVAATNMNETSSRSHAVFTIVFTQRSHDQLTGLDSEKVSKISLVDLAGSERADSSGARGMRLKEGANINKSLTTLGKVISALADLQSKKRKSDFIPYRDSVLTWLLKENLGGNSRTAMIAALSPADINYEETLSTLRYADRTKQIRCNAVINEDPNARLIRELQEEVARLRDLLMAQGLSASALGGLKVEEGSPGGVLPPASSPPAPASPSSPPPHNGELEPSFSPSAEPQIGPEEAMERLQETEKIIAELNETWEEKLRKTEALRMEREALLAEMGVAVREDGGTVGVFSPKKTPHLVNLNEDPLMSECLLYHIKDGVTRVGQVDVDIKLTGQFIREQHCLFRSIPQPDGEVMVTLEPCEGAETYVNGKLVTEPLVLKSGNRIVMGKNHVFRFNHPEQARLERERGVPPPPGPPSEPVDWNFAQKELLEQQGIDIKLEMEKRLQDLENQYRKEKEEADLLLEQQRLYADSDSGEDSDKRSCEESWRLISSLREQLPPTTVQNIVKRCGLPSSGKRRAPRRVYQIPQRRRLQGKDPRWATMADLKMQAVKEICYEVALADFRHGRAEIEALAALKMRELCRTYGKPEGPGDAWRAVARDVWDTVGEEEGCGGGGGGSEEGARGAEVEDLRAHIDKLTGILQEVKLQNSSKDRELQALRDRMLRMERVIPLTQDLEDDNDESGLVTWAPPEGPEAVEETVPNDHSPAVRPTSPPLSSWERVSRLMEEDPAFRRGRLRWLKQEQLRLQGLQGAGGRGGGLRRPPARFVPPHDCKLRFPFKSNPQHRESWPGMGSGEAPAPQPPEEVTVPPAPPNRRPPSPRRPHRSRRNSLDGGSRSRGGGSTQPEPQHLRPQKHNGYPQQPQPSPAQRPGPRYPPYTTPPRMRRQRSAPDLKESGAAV
Briefly: co-IP; α-KIF1C antibody (2 μg), protein G Dynabeads, lysates of untagged Kif1c+/+ and Kif1c ΔGA1,2 YUMM1.7 cells (3-4 mg total protein), Western blot; washes 50 mM Tris pH 7.4, 150 mM NaCl, 0.02% NP-40.

In experiment [3] the target is T1, KIF1C:mCherry (endogenous KIF1C tagged at the C terminus with mCherry) (mouse (endogenous in YUMM1.7)). Kind of experiment: co-IP; α-mCherry antibody, protein G Dynabeads, lysate of KIF1C:mCherry +/+ YUMM1.7 cells only (Kif1c mRNA properly localized), Western blot.
Experiment [4] addresses T2, KIF1C (endogenous, untagged) (mouse (endogenous in YUMM1.7)). Kind of experiment: co-IP; α-KIF1C antibody, protein G Dynabeads, lysate of untagged Kif1c+/+ YUMM1.7 cells only (Kif1c mRNA properly localized), Western blot.

B1: RAI14 (protein, UniProt Q9EP71 1-979)
chain: MKSLKAKFRKSDTNEWNKNDDRLLQAVENGDAEKVASLLGKKGASATKHDSEGKTAFHLAAAKGHVECLKVMVTHGVDVTAQDSSGHSALHVAAKNGHPECIRKLLQYKSPAENIDNSGKTALHYAAAQGCLQAVQLLCEHKSPINLKDLDGNIPLLVAVQNGHSEACHFLLDHGADVNSRDKNGRTALMLACETGSSNTVDALIKKGADLSLVDSLGHNALHYSKLSENAGIQNLLLSKISQDADLKTPTKPKQHDQVSKISSERSGTPKKRKAPPPPISPTQLSDVSSPRSITSTPLSGKESVFFAEAPFKAEISSIQENKDRLSDSTAGADSLLDISSEADQQDLLVLLQAKVASLTLHNKELQDKLQAKSPKDKEAEADLSFQSFHSTQTDLAPSPGKASDIPSSDAKSSPPVEHPAGTSTTDNDVIIRQLQDSLHDLQKRLESSEAEKKQLQDELQSQRTDTLCLNNTEISENGSDLSQKLKETQSKYEEAMKEVLSVQKQMKLGLLSQESADGYSHLREAPADEDIDTLKQDLQKAVEESARNKERVRELETKLAEKEQAEATKPPAEACEELRSSYCSVIENMNKEKAFLFEKYQQAQEEIMKLKDTLKSQMPQEAPDDSGDMKEAMNRMIDELNKQVSELSQLYREAQAELEDYRKRKSLEDAAEYIHKAEHERLMHVSNLSRAKSEEALSEMKSQYSKVLNELTQLKQLVDAHKENSVSITEHLQVITTLRTTAKEMEEKISALTGHLANKEAEVAKLEKQLAEEKAAVSDAMVPKSSYEKLQASLESEVNALATKLKESVREREKAHSEVAQVRSEVSQARREKDNIQTLLKAKEQEVTALVQKFQRAQEELAGMRRCSETSSKLEEDKDEKINEMTREVLKLKEALNSLSQLSYSTSSSKRQSQQLDLLQQQVKQLQNQLAECKKHHQEVISVYRMHLLYAVQGQMDEDVQKVLKQILTMCKNQSQKK
With B1, the binding result in experiment [1] and in experiment [2] was “binds” each time.

B2: FLII (protein, UniProt Q9JJ28 1-1271)
chain: MEATGVLPFVRGVDLSGNDFKGGYFPENVKAMTSLRWLKLNRTGLCYLPEELAALQKLEHLSVSHNHLTTLHGELSSLPSLRAIVARANSLKNSGVPDDIFKLDDLSVLDLSHNQLTECPRELENAKNMLVLNLSHNGIDSIPNQLFINLTDLLYLDLSENRLESLPPQMRRLVHLQTLVLNGNPLLHAQLRQLPAMMALQTLHLRNTQRTQSNLPTSLEGLSNLSDVDLSCNDLTRVPECLYTLPSLRRLNLSSNQIAELSLCIDQWVHLETLNLSRNQLTSLPSAICKLTKLKKLYLNSNKLDFDGLPSGIGKLTSLEEFMAANNNLELIPESLCRCPKLKKLVLNKNRLVTLPEAIHFLTEIQVLDVRENPSLVMPPKPADRTAEWYNIDFSLQNQLRLAGASPATVAAAAAVGSGSKDPLARKMRLRRRKDSAQDVQAKQVLKGMSDVAQEKNKNQEESIDARAPGGKVRRWDQGLEKPRLDYSEFFTEDVGQLPGLTIWQIENFVPVLVEEAFHGKFYEADCYIVLKTFLDDSGSLNWEIYYWIGGEATLDKKACSAIHAVNLRNYLGAECRTVREEMGDESEEFLQVFDNDISYIEGGTASGFYTVEDTHYVTRMYRVYGKKNIKLEPVPLKGSSLDPRFVFLLDQGLDIYVWRGAQATLSNTTKARLFAEKINKNERKGKAEITLLVQGQEPPGFWDVLGGEPSEIKNHVPDDFWPPQPKLYKVGLGLGYLELPQINYKLSVEHKKRPKVELMPGMRLLQSLLDTRCVYILDCWSDVFIWLGRKSPRLVRAAALKLGQELCGMLHRPRHTVVSRSLEGTEAQVFKAKFKNWDDVLTVDYTRNAEAVLQGQGLSGKVKRDTEKTDQMKADLTALFLPRQPPMPLAEAEQLMEEWNEDLDGMEGFVLEGRKFTRLPEEEFGHFYTQDCYVFLCRYWVPVEYEEEEKTEDKEGKASAEAREGEEAAAEAEEKQPEEDFQCIVYFWQGREASNMGWLTFTFSLQKKFESLFPGKLEVVRMTQQQENPKFLSHFKRKFIIHRGKRKVTQGTLQPTLYQIRTNGSALCTRCIQINTDSSLLNSEFCFILKVPFESEDNQGIVYAWVGRASDPDEAKLAEDILNTMFDASYSKQVINEGEEPENFFWVGIGAQKPYDDDAEYMKHTRLFRCSNEKGYFAVTEKCSDFCQDDLADDDIMLLDNGQEVYMWVGTQTSQVEIKLSLKACQVYIQHTRSKEHERPRRLRLVRKGNEQRAFTRCFHAWSTFRQAPA
Turning to B2, the binding entry in experiment [1] and in experiment [2] was “binds” throughout.

B3: ATL3 (protein, UniProt Q91YH5 1-541)
chain: MLSPQRTAAVASRGAGDAMENGKPGPVQVVLVHKEQHSFELEERALASVLLQDHIRDLDVVVVSVAGAFRKGKSFILDFMLRYLYSQKEGGHSDWLGDPEEPLTGFSWRGGSDPETTGIQIWSEVFTVKKPCGKKVAVVLMDTQGAFDSQSTVKDCATIFALSTMTSSVQIYNLSQNIQEDDLQQLQLFTEYGRLAMDEIFQKPFQTLMFLIRDWSFPYEYNYGLQGGMAFLDKRLHVKEHQHEEIQNVRNHIHSCFSDVTCFLLPHPGLQVATSPNFDGKLKDIASEFKEQLQALIPYVLNPSKLMEKEINGSKVTCRGLLEYFKAYIKIYQGEDLPHPKSMLQATAEANNLAAAASAKDIYYNNMEEICGGEKPYLSPDILEEKHLEFKQLALDHFKKIKKMGGKDFSFRYQQELEEEIKELYENFCKHNGSKNVFSTFRTPAVLFTGIAALYIASGFTGFIGLEVVAQLFNCMVGLLLIALLTWGYIRYSGQYRELGGAIDSGAAYVLEQASSHIGNSTQAAVRDAVVGRPPADKKSQ
Consider B3, for which the binding entry is reported as “binds weakly” in experiment [3], “binds” in experiment [1], “binds weakly” in experiment [4] and “binds” in experiment [2].

B4: KIF1C (endogenous, untagged) (protein, UniProt O35071 1-1100)
chain: MAGASVKVAVRVRPFNARETSQDAKCVVSMQGNTTSIINPKQSKDAPKSFTFDYSYWSHTSVEDPQFASQQQVYRDIGEEMLLHAFEGYNVCIFAYGQTGAGKSYTMMGRQEPGQQGIVPQLCEDLFSRVNVNQSAQLSYSVEVSYMEIYCERVRDLLNPKSRGSLRVREHPILGPYVQDLSKLAVTSYADIADLMDCGNKARTVAATNMNETSSRSHAVFTIVFTQRSHDQLTGLDSEKVSKISLVDLAGSERADSSGARGMRLKEGANINKSLTTLGKVISALADLQSKKRKSDFIPYRDSVLTWLLKENLGGNSRTAMIAALSPADINYEETLSTLRYADRTKQIRCNAVINEDPNARLIRELQEEVARLRDLLMAQGLSASALGGLKVEEGSPGGVLPPASSPPAPASPSSPPPHNGELEPSFSPSAEPQIGPEEAMERLQETEKIIAELNETWEEKLRKTEALRMEREALLAEMGVAVREDGGTVGVFSPKKTPHLVNLNEDPLMSECLLYHIKDGVTRVGQVDVDIKLTGQFIREQHCLFRSIPQPDGEVMVTLEPCEGAETYVNGKLVTEPLVLKSGNRIVMGKNHVFRFNHPEQARLERERGVPPPPGPPSEPVDWNFAQKELLEQQGIDIKLEMEKRLQDLENQYRKEKEEADLLLEQQRLYADSDSGEDSDKRSCEESWRLISSLREQLPPTTVQNIVKRCGLPSSGKRRAPRRVYQIPQRRRLQGKDPRWATMADLKMQAVKEICYEVALADFRHGRAEIEALAALKMRELCRTYGKPEGPGDAWRAVARDVWDTVGEEEGCGGGGGGSEEGARGAEVEDLRAHIDKLTGILQEVKLQNSSKDRELQALRDRMLRMERVIPLTQDLEDDNDESGLVTWAPPEGPEAVEETVPNDHSPAVRPTSPPLSSWERVSRLMEEDPAFRRGRLRWLKQEQLRLQGLQGAGGRGGGLRRPPARFVPPHDCKLRFPFKSNPQHRESWPGMGSGEAPAPQPPEEVTVPPAPPNRRPPSPRRPHRSRRNSLDGGSRSRGGGSTQPEPQHLRPQKHNGYPQQPQPSPAQRPGPRYPPYTTPPRMRRQRSAPDLKESGAAV
Regarding B4, the binding result in experiment [1] was “binds”.
